Reference: the supplement of paper PMC10849652
The other results are listed elsewhere or left out.

The chains behind the UniProt entries cited, without tags or fusion partners. Where a name states a change or a piece, a line headed by the entry shows the natural chain unless it says otherwise.
UniProt Q92844: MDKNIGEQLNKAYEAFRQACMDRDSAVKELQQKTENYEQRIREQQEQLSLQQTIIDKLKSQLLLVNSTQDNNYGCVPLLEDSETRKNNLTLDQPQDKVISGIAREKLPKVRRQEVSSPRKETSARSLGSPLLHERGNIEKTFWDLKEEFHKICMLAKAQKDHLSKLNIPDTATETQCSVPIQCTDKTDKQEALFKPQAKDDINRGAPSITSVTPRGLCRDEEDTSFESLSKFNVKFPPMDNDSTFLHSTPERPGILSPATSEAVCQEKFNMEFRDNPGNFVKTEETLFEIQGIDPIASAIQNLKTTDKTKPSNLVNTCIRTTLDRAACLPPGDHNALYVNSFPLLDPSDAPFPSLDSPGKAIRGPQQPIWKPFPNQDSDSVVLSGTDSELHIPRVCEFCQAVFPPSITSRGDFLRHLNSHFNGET
UniProt Q9Y6J9: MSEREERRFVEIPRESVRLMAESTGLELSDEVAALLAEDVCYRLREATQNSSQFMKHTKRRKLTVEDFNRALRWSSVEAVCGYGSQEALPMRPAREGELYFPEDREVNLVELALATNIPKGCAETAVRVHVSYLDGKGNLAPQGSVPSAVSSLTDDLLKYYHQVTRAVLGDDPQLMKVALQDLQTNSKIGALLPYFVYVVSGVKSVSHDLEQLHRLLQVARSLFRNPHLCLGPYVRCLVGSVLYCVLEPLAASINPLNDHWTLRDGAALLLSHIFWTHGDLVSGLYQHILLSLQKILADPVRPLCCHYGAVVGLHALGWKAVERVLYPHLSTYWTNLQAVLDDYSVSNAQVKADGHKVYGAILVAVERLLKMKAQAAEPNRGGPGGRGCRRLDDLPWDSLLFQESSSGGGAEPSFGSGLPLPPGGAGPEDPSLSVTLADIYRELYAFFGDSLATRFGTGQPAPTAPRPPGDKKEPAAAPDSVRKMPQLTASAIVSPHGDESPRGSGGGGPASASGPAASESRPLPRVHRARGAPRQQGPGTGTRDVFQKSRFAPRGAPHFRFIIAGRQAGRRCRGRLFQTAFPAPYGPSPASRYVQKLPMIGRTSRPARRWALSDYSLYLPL
UniProt O14907: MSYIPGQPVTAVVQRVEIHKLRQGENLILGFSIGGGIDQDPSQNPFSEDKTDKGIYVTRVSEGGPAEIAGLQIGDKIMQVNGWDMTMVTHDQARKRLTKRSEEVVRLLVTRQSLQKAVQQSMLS
UniProt P02786, whole entry, looked up: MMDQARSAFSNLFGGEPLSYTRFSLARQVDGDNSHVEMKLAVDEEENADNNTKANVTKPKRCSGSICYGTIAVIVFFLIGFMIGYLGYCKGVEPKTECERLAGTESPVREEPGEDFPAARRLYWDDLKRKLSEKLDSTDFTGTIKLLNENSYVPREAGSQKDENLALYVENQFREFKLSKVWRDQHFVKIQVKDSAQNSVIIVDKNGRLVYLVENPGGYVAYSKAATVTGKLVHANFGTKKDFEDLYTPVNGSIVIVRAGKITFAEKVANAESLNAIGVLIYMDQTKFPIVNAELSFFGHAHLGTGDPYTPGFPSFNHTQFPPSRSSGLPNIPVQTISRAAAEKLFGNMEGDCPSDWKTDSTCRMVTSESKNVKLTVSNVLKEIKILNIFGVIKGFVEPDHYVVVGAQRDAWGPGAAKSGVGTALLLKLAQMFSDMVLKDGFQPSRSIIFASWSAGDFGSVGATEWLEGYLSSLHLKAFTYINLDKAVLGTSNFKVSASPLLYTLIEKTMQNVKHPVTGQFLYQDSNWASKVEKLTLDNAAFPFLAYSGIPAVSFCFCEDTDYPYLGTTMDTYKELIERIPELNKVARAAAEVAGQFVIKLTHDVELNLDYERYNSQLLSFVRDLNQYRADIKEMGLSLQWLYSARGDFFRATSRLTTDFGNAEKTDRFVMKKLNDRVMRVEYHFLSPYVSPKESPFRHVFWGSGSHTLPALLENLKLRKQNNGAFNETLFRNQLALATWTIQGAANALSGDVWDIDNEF
UniProt Q5QJ74: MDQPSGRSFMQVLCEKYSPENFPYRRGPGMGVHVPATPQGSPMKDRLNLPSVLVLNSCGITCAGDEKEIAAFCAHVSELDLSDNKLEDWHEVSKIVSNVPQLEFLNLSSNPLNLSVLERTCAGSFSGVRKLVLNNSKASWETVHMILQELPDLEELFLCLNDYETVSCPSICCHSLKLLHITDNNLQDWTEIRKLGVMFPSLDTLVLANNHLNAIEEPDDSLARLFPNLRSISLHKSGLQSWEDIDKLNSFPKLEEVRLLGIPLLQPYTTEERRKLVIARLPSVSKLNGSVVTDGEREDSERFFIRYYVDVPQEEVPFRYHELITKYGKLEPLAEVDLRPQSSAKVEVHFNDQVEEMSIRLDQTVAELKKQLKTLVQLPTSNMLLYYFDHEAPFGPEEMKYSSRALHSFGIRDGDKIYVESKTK
UniProt Q9H5Q4: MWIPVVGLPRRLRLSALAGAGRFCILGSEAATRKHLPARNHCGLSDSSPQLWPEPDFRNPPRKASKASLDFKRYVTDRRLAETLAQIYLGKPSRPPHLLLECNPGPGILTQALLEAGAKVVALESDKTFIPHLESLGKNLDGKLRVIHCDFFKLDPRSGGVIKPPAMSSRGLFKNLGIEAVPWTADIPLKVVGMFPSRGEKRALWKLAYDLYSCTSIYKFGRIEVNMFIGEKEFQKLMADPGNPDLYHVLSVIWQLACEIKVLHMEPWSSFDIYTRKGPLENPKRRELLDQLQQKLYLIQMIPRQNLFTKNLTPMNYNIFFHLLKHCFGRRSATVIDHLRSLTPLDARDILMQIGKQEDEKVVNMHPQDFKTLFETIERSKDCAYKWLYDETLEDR
UniProt O43435: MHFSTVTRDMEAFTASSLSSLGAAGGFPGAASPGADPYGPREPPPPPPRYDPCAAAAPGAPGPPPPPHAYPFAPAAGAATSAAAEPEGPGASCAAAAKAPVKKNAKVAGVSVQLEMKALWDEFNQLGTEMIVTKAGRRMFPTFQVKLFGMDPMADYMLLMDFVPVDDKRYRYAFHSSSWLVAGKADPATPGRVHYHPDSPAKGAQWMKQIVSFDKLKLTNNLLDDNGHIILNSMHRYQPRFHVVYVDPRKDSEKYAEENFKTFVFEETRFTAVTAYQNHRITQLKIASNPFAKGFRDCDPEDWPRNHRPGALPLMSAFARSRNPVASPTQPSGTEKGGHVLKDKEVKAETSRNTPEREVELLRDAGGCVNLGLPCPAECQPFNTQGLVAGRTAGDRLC

Experiments:
Assay in all cases: log2 fold change, soluble protein after heating vs DMSO (PISA); higher = thermal stabilisation; K562 lysate, 10 uM; active = over 0.2 and 3.5 SD of the protein, either way, in both replicates (recomputed)
[1] = compound: C1=CC=C(C=C1)[C@H](COC2=CC3=C(C=C2)NC(=O)N3)NC(=O)C4=CC=CN(C4=O)CC5=CC(=C(C=C5)F)F
Method in brief: (§1)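 Soluble protein was defined as the supernatant remaining after 21,000xg for 90 min, following pooling of heated aliquots and adjustment to 0.5% NP-40 at 4°C. Before that, crude K562 extract at 1 mg/mL protein in PBS pH 7.4 with 1 mM MgCl2 was treated with 10 μM compound for 30 min and heated for 3 min across 48°C-58°C. Quantification used TMTpro 16plex LC-MS/MS with channel sums equalised, and values are log-two fold changes in thermal stability relative to solvent controls from duplicates.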

[2] = compound: CC1=C(SC2=C1C(=N[C@H](C3=NN=C(N32)C)CC(=O)N)C4=CC=C(C=C4)Cl)C
Method in brief: as §1

[3] = compound: CC1=C2C(=CC=C1)N=C(N(C2=O)C3=CC=CC=C3C)CN4C=NC5=C(N=CN=C54)N
Method in brief: as §1

[4] = compound: Cc1sc2c(c1C)C(c1ccc(Cl)cc1)=N[C@@H](CC(=O)OC(C)(C)C)c1nnc(C)n1-2
Method in brief: as §1

[5] = compound: c1ccc([C@@H]2C[C@H]2NC2CCNCC2)cc1
Method in brief: as §1

Measured: log2 fold change

TANK (UniProt Q92844)
inactive: [1] 0.04 | [2] -0.088 | [3] -0.023 | [4] -0.079 | [5] -0.025

TCEA1 (UniProt P23193)
inactive: [1] 0.048 | [2] -0.009 | [3] -0.028 | [4] -0.031 | [5] -0.036

TAF6L (UniProt Q9Y6J9)
inactive: [1] 0.011 | [2] -0.027 | [3] -0.094 | [4] -0.02 | [5] 0.061

TAX1BP3 (UniProt O14907)
inactive: [1] -0.242 | [2] 0.264 | [3] -0.02 | [4] 0.179 | [5] -0.028

TFRC (UniProt P02786)
inactive: [1] -0.017 | [2] 0.014 | [3] -0.001 | [4] -0.011 | [5] 0.006

TBCEL (UniProt Q5QJ74)
inactive: [1] -0.23 | [2] -0.052 | [3] -0.013 | [4] -0.023 | [5] -0.165

TFB2M (UniProt Q9H5Q4)
inactive: [1] -0.073 | [2] 0.015 | [3] 0.022 | [4] 0.007 | [5] 0.087

TBX1 isoform 3 (UniProt O43435)
inactive: [1] 0.169 | [2] 0.021 | [3] 0.152 | [5] 0.074
